Experimental data: US8822502B2, “Insecticidal compounds” (Syngenta Crop Protection LLC, priority 2008, dated 2014)
Some entries share one result that the patent states for a list of compounds.

How the values were obtained:
Type in all cases: in vivo
Thrips tabaci = Thrips tabaci sunflower leaf disc spray test; conditions: application rate 200 ppm, sprayed sunflower leaf discs, population of mixed ages, 7 days; mortality
Description: Thrips Tabaci (Onion Thrips):
Sunflower leaf discs were placed on agar in a 24-well microtiter plate and sprayed with test solutions at an application rate of 200 ppm. […] After an incubation period of 7 days, samples were checked for mortality.

Spodoptera littoralis = Spodoptera littoralis cotton leaf disc spray test; conditions: application rate 200 ppm, sprayed cotton leaf discs, L1 larvae, 3 days after treatment; mortality, feeding behavior, growth regulation
From the text: Spodoptera Littoralis (Egyptian Cotton Leafworm):
Cotton leaf discs were placed on agar in a 24-well microtiter plate and sprayed with test solutions at an application rate of 200 ppm. After drying, the leaf discs were infested with 5 L1 larvae. The samples were checked for mortality, feeding behavior, and growth regulation 3 days after treatment (DAT).

Plutella xylostella = Plutella xylostella artificial diet test; conditions: application rate 200 ppm (concentration in well 18 ppm), L2 larvae, 6 days, larval mortality, growth regulation
Description: Plutella Xylostella (Diamond Back Moth):
(§1) 24-well microtiter plate (MTP) with artificial diet was treated with test solutions at an application rate of 200 ppm (concentration in well 18 ppm) by pipetting. After drying, the MTP's were infested with L2 larvae (7-12 per well). After an incubation period of 6 days, samples were checked for larval mortality and growth regulation.

Tetranychus urticae = Tetranychus urticae bean leaf disc spray test; conditions: application rate 200 ppm, sprayed bean leaf discs, mite populations of mixed ages, 8 days; egg, larval and adult mortality
From the text: Tetranychus Urticae (Two-Spotted Spider Mite):
Bean leaf discs on agar in 24-well microtiter plates were sprayed with test solutions at an application rate of 200 ppm. After drying, the leaf discs are infested with mite populations of mixed ages. 8 days later, discs are checked for egg mortality, larval mortality, and adult mortality.

Diabrotica balteata = Diabrotica balteata artificial diet test; conditions: application rate 200 ppm (concentration in well 18 ppm), L2 larvae, 5 days, larval mortality, growth regulation
Description: Diabrotica Balteata (Corn Root Worm):
as §1, with “A 24-well” for “24-well”, “(6-10” for “(7-12”, “5” for “6”

Heliothis virescens = Heliothis virescens egg / artificial diet test; conditions: application rate 200 ppm (concentration in well 18 ppm), eggs 0-24 h old on artificial diet, 4 days; egg mortality, larval mortality, growth regulation
Description: Heliothis Virescens (Tobacco Budworm):
Eggs (0-24 h old) were placed in 24-well microtiter plate on artificial diet and treated with test solutions at an application rate of 200 ppm (concentration in well 18 ppm) by pipetting. After an incubation period of 4 days, samples were checked for egg mortality, larval mortality, and growth regulation.

Cc1cc(C2=NCC(c3cc(Cl)cc(Cl)c3)(C(F)(F)F)C2)ccc1C(=O)NCC1CCS1(=O)=O (stereo not drawn) [A10]
at least 80%: control of Thrips tabaci (Thrips tabaci) | control of Spodoptera littoralis (Spodoptera littoralis) | control of Plutella xylostella (Plutella xylostella) | control of Tetranychus urticae (Tetranychus urticae) | control of Diabrotica balteata (Diabrotica balteata) | control of Heliothis virescens (Heliothis virescens)
